Data as given in PubChem BioAssay AID1259405 (NCATS, 2018)

- Purpose: 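Mouse-designed siRNAs used to find CHO productivity engineering targets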 (primary screen)
- Cell system: Chinese hamster CHO-K1 ovary cells with stable secreted eGFP expression
- Reagent: single siRNA against mouse genes, 0.8 pmol siRNA per well (2 µl of 400 nM stock)
- Time to read-out: 3 days
- Measured: 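Per-well intracellular GFP measured by laser scanning cytometry, plus viability from ATP luminescence, each relative to plate median of non-targeting control wells, in %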
- Direction: GFP, % of control: higher = more GFP per well, higher productivity; viability (ATP), % of control: higher = more viable cells (more ATP)
- Active means: 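a knock-down is called active if GFP reaches 120% or more of non-targeting control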
This is an unselected part of about 50,000 reagents. About 4,000 of all reagents (8%) were called active. 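Mouse siRNA library applied to hamster cells; one well for each siRNA.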 A number with no mark means an inactive call. No sequences are given here.

Silencing of Smad3 (GeneID 17127) [SID363573731] came out at: GFP, % of control 65.4; viability (ATP), % of control 51.3. Depletion of Smad3 (GeneID 17127) [SID363581475] came out at: GFP, % of control 77.7; viability (ATP), % of control 79. With knock-down of Smad3 (GeneID 17127) [SID363583939], the screen gave GFP, % of control 100; viability (ATP), % of control 86. Scg2 (GeneID 20254) [SID363572810] gave GFP, % of control 77.4; viability (ATP), % of control 66.7. With knock-down of Scg2 (GeneID 20254) [SID363578090], the record shows GFP, % of control 73.3; viability (ATP), % of control 67.7. With knock-down of Scg2 (GeneID 20254) [SID363582314], the record shows GFP, % of control 94.7; viability (ATP), % of control 90.

Against Tnfrsf9 (GeneID 21942) [SID363568803] the deposit lists GFP, % of control 86.2; viability (ATP), % of control 90.5. Tnfrsf9 (GeneID 21942) [SID363576195] scored GFP, % of control 71.4; viability (ATP), % of control 63.6. Tnfrsf9 (GeneID 21942) [SID363579011] showed GFP, % of control 81.7; viability (ATP), % of control 69.4. Against Scgb2b2 (GeneID 381970) [SID363542962], the entry reads GFP, % of control 60; viability (ATP), % of control 66.5. Scgb2b2 (GeneID 381970) [SID363546479] scored GFP, % of control 62.6; viability (ATP), % of control 55.9. Knock-down of Scgb2b2 (GeneID 381970) [SID363548235] gave: GFP, % of control 63.7; viability (ATP), % of control 60.5.

Plce1 (GeneID 74055) [SID363570285] gave GFP, % of control 123 (active); viability (ATP), % of control 117. Depletion of Plce1 (GeneID 74055) [SID363576621] gave: GFP, % of control 149 (active); viability (ATP), % of control 130. After knock-down of Plce1 (GeneID 74055) [SID363579789] the results were GFP, % of control 68.3; viability (ATP), % of control 88.8. Against Dsg1a (GeneID 13510) [SID363573372], the entry reads GFP, % of control 81.5; viability (ATP), % of control 65.5. Against Dsg1a (GeneID 13510) [SID363588611], the entry reads GFP, % of control 63.3; viability (ATP), % of control 77.5. Nsf (GeneID 18195) [SID363569738] showed GFP, % of control 124 (active); viability (ATP), % of control 105.

With knock-down of Nsf (GeneID 18195) [SID363576778], the screen gave GFP, % of control 121 (active); viability (ATP), % of control 76.5. For Nsf (GeneID 18195) [SID363578186], the values are GFP, % of control 89; viability (ATP), % of control 79.6. Fnip1 (GeneID 216742) [SID363542649] scored GFP, % of control 69.6; viability (ATP), % of control 61.2. With knock-down of Fnip1 (GeneID 216742) [SID363546166] the results were GFP, % of control 129 (active); viability (ATP), % of control 56.4. After knock-down of Fnip1 (GeneID 216742) [SID363547922], the record shows GFP, % of control 81.6; viability (ATP), % of control 96.6. Against Mtif2 (GeneID 76784) [SID363541329] the deposit lists GFP, % of control 74.5; viability (ATP), % of control 55.1.

With knock-down of Mtif2 (GeneID 76784) [SID363555956], the screen gave GFP, % of control 44; viability (ATP), % of control 58.2. For Mtif2 (GeneID 76784) [SID363566245] the deposit lists GFP, % of control 109; viability (ATP), % of control 60.8. For C2cd5 (GeneID 74741) [SID363552414], the entry reads GFP, % of control 58.4; viability (ATP), % of control 31.4. After knock-down of C2cd5 (GeneID 74741) [SID363585550] the results were GFP, % of control 77.4; viability (ATP), % of control 94.9. C2cd5 (GeneID 74741) [SID363585901] gave GFP, % of control 96.8; viability (ATP), % of control 99.5. Knock-down of Gpatch2 (GeneID 67769) [SID363540031] gave: GFP, % of control 63.1; viability (ATP), % of control 73.4.

Depletion of Gpatch2 (GeneID 67769) [SID363561332] gave: GFP, % of control 72.3; viability (ATP), % of control 64.9. Against Gpatch2 (GeneID 67769) [SID363564368], the entry reads GFP, % of control 52; viability (ATP), % of control 52.6. Vmn1r228 (GeneID 171226) [SID363544937] gave GFP, % of control 81.3; viability (ATP), % of control 91.2. Depletion of Vmn1r228 (GeneID 171226) [SID363551265] came out at: GFP, % of control 64; viability (ATP), % of control 63.4. After knock-down of Vmn1r228 (GeneID 171226) [SID363557814] the results were GFP, % of control 54.7; viability (ATP), % of control 63.9. For Nox4 (GeneID 50490) [SID363568695] the deposit lists GFP, % of control 65.9; viability (ATP), % of control 77.5.

With knock-down of Nox4 (GeneID 50490) [SID363576087], the screen gave GFP, % of control 89.9; viability (ATP), % of control 72.1. Nox4 (GeneID 50490) [SID363578903] showed GFP, % of control 21.3; viability (ATP), % of control 35.6. Against Vwc2 (GeneID 319922) [SID363542866] the deposit lists GFP, % of control 56.3; viability (ATP), % of control 53.2. Knock-down of Vwc2 (GeneID 319922) [SID363546383] resulted in: GFP, % of control 82.5; viability (ATP), % of control 92.5. Depletion of Vwc2 (GeneID 319922) [SID363548139] came out at: GFP, % of control 75.7; viability (ATP), % of control 67.8.

3 entries from above, reformatted.
gene symbol,PubChem SID,"GFP, % of control","viability (ATP), % of control"
Scgb2b2 (GeneID 381970),SID363548235,63.7,60.5
Plce1 (GeneID 74055),SID363570285,123 (active),117
Plce1 (GeneID 74055),SID363576621,149 (active),130
